{"source": "PubChem BioAssay AID2685", "about": "(National Center for Advancing Translational Sciences (NCATS), 2010)", "assay": "qHTS Assay for Lipid Storage Modulators in Drosophila S3 Cells;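 on cell number change: cells counted by Cell Tracker Red CMTPX staining in the red channel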", "conditions": "BODIPY lipid droplet fluorescence, 18-24 h; for cell number change: measured here: cell count max response, cells fed with added oleic acid", "outline": "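Drosophila S3 cells loaded with oleic acid (400 uM, as added) and compounds at several concentrations; lipid droplets imaged by 488-nm laser-scanning cytometry, 500–530 nm intensity and object ratio to cell channel. Percent activity normalized to 20 uM Triacsin C.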", "key": {"[1]": {"conditions": "measured here: lipid fluorescence (Fed channel) AC50, cells fed with added oleic acid"}, "[2]": {"conditions": "measured here: cell number channel AC50, cells fed with added oleic acid"}}, "note": "The other results are listed elsewhere or left out. Shown are side measurements of this screen, not its main read-out; they come without a call. The list favours compounds with an active or inconclusive main result. Words in brackets tell the shape of the fitted curve; partial curves, single points and poor fits give uncertain potencies.", "data": [{"smiles": "O=S(=O)(NCCc1ccc(Cl)cc1)c1cccc2cccnc12", "values": [{"measurement": "cell number change", "value": 19.9, "unit": "%"}]}, {"smiles": "O=C(CN1C(=O)COc2ccccc21)N(CCCN1CCOCC1)CC1CC=CCC1", "note": "(stereo unspecified)", "values": [{"measurement": "cell number change", "value": -16.7, "unit": "%"}, {"measurement": "AC50", "setting": "[1]", "value": "146 nM [rising, full curve, poor fit]"}]}, {"smiles": "COC(=O)c1ccc(/C=N/NC(=O)C(=O)N2CCCCCC2)cc1", "values": [{"measurement": "cell number change", "value": 23.8, "unit": "%"}]}, {"smiles": "O=C(CS(=O)(=O)Cc1ccccc1)N1CCN(c2cccc(C(F)(F)F)c2)CC1", "values": [{"measurement": "cell number change", "value": -15.8, "unit": "%"}]}, {"smiles": "CCC(C)[C@H]1COCCS(=O)(=O)N1Cc1ccccc1", "note": "(stereo partly specified)", "values": [{"measurement": "cell number change", "value": 4.79, "unit": "%"}]}, {"smiles": "O=c1c2c3nc4ccccc4nc3n(/N=C/c3ccco3)c2ncn1CCC1=CCCCC1", "values": [{"measurement": "cell number change", "value": -20.1, "unit": "%"}, {"measurement": "AC50", "setting": "[2]", "value": "291 nM [falling, partial curve]"}]}, {"smiles": "C=CCN(c1ccccc1)S(=O)(=O)c1ccc2c(c1)NC(=O)C(C)S2", "note": "(stereo unspecified)", "values": [{"measurement": "AC50", "setting": "[1]", "value": "4.61 nM [falling, full curve, poor fit]"}]}, {"smiles": "Cc1ccc(C)c(NC(=O)CN(C)C(=O)c2ccccc2Cc2ccccc2)c1", "values": [{"measurement": "AC50", "setting": "[1]", "value": "2060 nM [falling, single point]"}]}, {"smiles": "COc1ccc(C2CC(C(F)(F)F)n3ncc(C(=O)NCc4cccnc4)c3N2)cc1OC", "note": "(stereo unspecified)", "values": [{"measurement": "cell number change", "value": 164, "unit": "%"}, {"measurement": "AC50", "setting": "[1]", "value": "580 nM [rising, single point]"}]}, {"smiles": "CCCCCCCCCCCC(=O)c1c(O)cccc1O", "values": [{"measurement": "cell number change", "value": -4.21, "unit": "%"}, {"measurement": "AC50", "setting": "[2]", "value": "92 nM [falling, full curve, poor fit]"}, {"measurement": "AC50", "setting": "[1]", "value": "73.1 nM [falling, full curve, poor fit]"}]}, {"smiles": "O=C(COc1ccc(Cl)cc1)NCc1cn2cc(Cl)ccc2n1", "values": [{"measurement": "AC50", "setting": "[2]", "value": "6510 nM [falling, single point]"}, {"measurement": "AC50", "setting": "[1]", "value": "6510 nM [falling, single point]"}]}, {"smiles": "Cc1ccc(N/N=C2\\CCS(=O)(=O)c3sccc32)cc1", "values": [{"measurement": "cell number change", "value": -27.7, "unit": "%"}, {"measurement": "AC50", "setting": "[1]", "value": "2590 nM [falling, full curve, poor fit]"}]}, {"smiles": "COc1ccc(N(CC(=O)NC2CCCC2)C(=O)c2ccc(C)s2)cc1OC", "values": [{"measurement": "cell number change", "value": 16.7, "unit": "%"}, {"measurement": "AC50", "setting": "[1]", "value": "29100 nM [rising, single point]"}]}, {"smiles": "COC(=O)c1cccc(NC(N)=S)c1", "values": [{"measurement": "AC50", "setting": "[1]", "value": "580 nM [falling, single point]"}]}, {"smiles": "CCCCOC(=O)/C=C/c1c(C)[nH]c(=O)[nH]c1=O", "values": [{"measurement": "AC50", "setting": "[1]", "value": "2060 nM [rising, full curve, poor fit]"}]}, {"smiles": "CC(=O)c1ccc(N(C(=O)c2csnn2)C(C(=O)NC2CCCC2)c2ccccc2)cc1", "note": "(stereo unspecified)", "values": [{"measurement": "cell number change", "value": 5.71, "unit": "%"}, {"measurement": "AC50", "setting": "[1]", "value": "29100 nM [rising, single point]"}]}, {"smiles": "CN(C)CCCCNCCCNC(=O)/C=N\\O", "values": [{"measurement": "cell number change", "value": -6.47, "unit": "%"}, {"measurement": "AC50", "setting": "[1]", "value": "6510 nM [falling, single point]"}]}, {"smiles": "Cc1ccc(S(=O)(=O)c2nc(Nc3ccccc3)sc2Cl)cc1", "values": [{"measurement": "cell number change", "value": -24.1, "unit": "%"}, {"measurement": "AC50", "setting": "[1]", "value": "18400 nM [falling, partial curve, poor fit]"}]}, {"smiles": "CC(CN1CCCCC1)OC(=O)C(C)(c1ccccc1)c1ccccc1", "note": "(stereo unspecified)", "values": [{"measurement": "cell number change", "value": -9.65, "unit": "%"}, {"measurement": "AC50", "setting": "[1]", "value": "731 nM [falling, single point]"}]}, {"smiles": "Cc1ccc(C)c(NC(=O)CCC(=O)N/N=C/c2cccnc2)c1", "values": [{"measurement": "cell number change", "value": 19.3, "unit": "%"}, {"measurement": "AC50", "setting": "[1]", "value": "29100 nM [rising, single point]"}]}, {"smiles": "Cn1c(=O)c(C(=O)CCl)c(N)n(Cc2ccccc2)c1=O", "values": [{"measurement": "cell number change", "value": 3.46, "unit": "%"}, {"measurement": "AC50", "setting": "[1]", "value": "461 nM [rising, full curve]"}]}, {"smiles": "O=C(NCCCN1CCCC1=O)c1ccc(S(=O)(=O)Nc2ccccc2)cc1", "values": [{"measurement": "cell number change", "value": 20.6, "unit": "%"}, {"measurement": "AC50", "setting": "[1]", "value": "461 nM [rising, full curve]"}]}, {"smiles": "COc1ccc(N2CCN(CC(=O)c3ccc(Cl)cc3)CC2)cc1", "values": [{"measurement": "AC50", "setting": "[1]", "value": "130 nM [falling, full curve, poor fit]"}]}, {"smiles": "Cc1cc(C)cc(OCC(=O)NC2CCCc3ccccc32)c1", "note": "(stereo unspecified)", "values": [{"measurement": "cell number change", "value": -25.7, "unit": "%"}, {"measurement": "AC50", "setting": "[1]", "value": "8200 nM [falling, partial curve, poor fit]"}]}, {"smiles": "Cc1ccc(NC(=O)C(Nc2ccccc2)c2ccccc2)cc1", "note": "(stereo unspecified)", "values": [{"measurement": "cell number change", "value": 10.4, "unit": "%"}, {"measurement": "AC50", "setting": "[1]", "value": "580 nM [falling, single point]"}]}, {"smiles": "CCN(CC(=O)Nc1c(F)cccc1F)C(=O)CSCC(=O)Nc1cccc(C)c1", "values": [{"measurement": "AC50", "setting": "[1]", "value": "4110 nM [falling, single point]"}]}, {"smiles": "O=C(/C=C/c1ccc(Cl)c([N+](=O)[O-])c1)Nc1cccc(NC(=O)c2ccco2)c1", "values": [{"measurement": "cell number change", "value": 11.7, "unit": "%"}]}, {"smiles": "COc1ccc(C(=O)N2CCN(c3ncccn3)CC2)cc1[N+](=O)[O-]", "values": [{"measurement": "cell number change", "value": -4.4, "unit": "%"}, {"measurement": "AC50", "setting": "[1]", "value": "29100 nM [rising, single point]"}]}, {"smiles": "Cc1cc(C(=O)NN)n[nH]1", "values": [{"measurement": "cell number change", "value": 31.4, "unit": "%"}, {"measurement": "AC50", "setting": "[2]", "value": "29100 nM [rising, single point]"}, {"measurement": "AC50", "setting": "[1]", "value": "291 nM [rising, full curve]"}]}, {"smiles": "CCCCc1nc2cc(Cl)ccc2o1", "values": [{"measurement": "cell number change", "value": -11.3, "unit": "%"}, {"measurement": "AC50", "setting": "[1]", "value": "29100 nM [falling, single point]"}]}, {"smiles": "Cc1c[n+](CC(=O)c2ccccc2)cs1", "values": [{"measurement": "cell number change", "value": 5.84, "unit": "%"}, {"measurement": "AC50", "setting": "[1]", "value": "6510 nM [falling, single point]"}]}, {"smiles": "COc1ccc(-c2nnc(-c3cc4c(ccc5ccccc54)oc3=O)o2)cc1", "values": [{"measurement": "cell number change", "value": 52.4, "unit": "%"}, {"measurement": "AC50", "setting": "[2]", "value": "580 nM [rising, partial curve, poor fit]"}, {"measurement": "AC50", "setting": "[1]", "value": "13000 nM [rising, partial curve]"}]}, {"smiles": "O=C(O)c1cccc(-n2cnnn2)c1", "values": [{"measurement": "cell number change", "value": -1.65, "unit": "%"}]}, {"smiles": "COc1ccc(NS(=O)(=O)c2cc(NC(=O)c3ccc(F)cc3)ccc2OC)cc1", "values": [{"measurement": "cell number change", "value": 33.3, "unit": "%"}, {"measurement": "AC50", "setting": "[2]", "value": "1640 nM [rising, partial curve]"}, {"measurement": "AC50", "setting": "[1]", "value": "3660 nM [falling, full curve]"}]}, {"smiles": "COc1ccc(NC(=O)CN(C)C(=O)C2CC(=O)N(c3cccc4ccccc34)C2)cc1", "note": "(stereo unspecified)", "values": [{"measurement": "cell number change", "value": -4.79, "unit": "%"}]}, {"smiles": "O=C(c1cc2cc(Cl)ccc2o1)N1CCCC1", "values": [{"measurement": "cell number change", "value": -1.68, "unit": "%"}, {"measurement": "AC50", "setting": "[1]", "value": "5.17 nM [rising, full curve, poor fit]"}]}, {"smiles": "Cc1ccc(N(Cc2ccccc2)C(=O)c2ccc(F)c(S(=O)(=O)N3CCOCC3)c2)cc1", "values": [{"measurement": "AC50", "setting": "[1]", "value": "411 nM [rising, single point]"}]}, {"smiles": "COc1ccc(NC(=O)C2CCCN2S(=O)(=O)c2ccc3c(c2)CC(C)N3C(C)=O)cc1OC", "note": "(stereo unspecified)", "values": [{"measurement": "cell number change", "value": -13.5, "unit": "%"}]}, {"smiles": "CCOc1cc(C(=O)Nc2cc3c(cc2N2CCCC2)n(C)c(=O)n3C)cc(OCC)c1OCC", "values": [{"measurement": "AC50", "setting": "[2]", "value": "3660 nM [rising, partial curve]"}, {"measurement": "AC50", "setting": "[1]", "value": "1300 nM [rising, full curve]"}]}, {"smiles": "CCOC(=O)c1c(NC(=O)C2c3ccccc3Oc3ccccc32)sc(C(N)=O)c1C", "values": [{"measurement": "AC50", "setting": "[2]", "value": "6510 nM [rising, single point]"}, {"measurement": "AC50", "setting": "[1]", "value": "5800 nM [rising, single point]"}]}, {"smiles": "O=C(c1cc(-c2cccc(Cl)c2)on1)N1CCN(c2ccccc2)CC1", "values": [{"measurement": "cell number change", "value": 22.9, "unit": "%"}, {"measurement": "AC50", "setting": "[1]", "value": "25900 nM [rising, single point]"}]}]}
